# In all, about 33,000 sequences were measured (“E-score (-0.5 to 0.5)”: median about -0.0059, highest 2% from about 0.26 on). The list shows a part of the results.
# Target: T1, Cin5 (UniProt P40917)
# T1 sequence: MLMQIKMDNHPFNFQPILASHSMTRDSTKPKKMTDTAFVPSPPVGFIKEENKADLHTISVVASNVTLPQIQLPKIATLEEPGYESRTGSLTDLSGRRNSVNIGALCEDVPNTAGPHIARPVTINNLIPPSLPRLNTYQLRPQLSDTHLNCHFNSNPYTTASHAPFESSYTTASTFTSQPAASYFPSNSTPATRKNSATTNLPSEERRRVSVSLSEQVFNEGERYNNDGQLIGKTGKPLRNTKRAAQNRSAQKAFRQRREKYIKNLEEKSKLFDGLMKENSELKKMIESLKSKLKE
# Experiment: PBM E-score (8-mer binding enrichment) (E-score (-0.5 to 0.5)); higher = stronger / more preferred TF binding
# Details: protein concentration: 100 nM; construct: GST-full length
# How it was run: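 For each ungapped eight-base word taken together with its reverse complement, the Universal PBM Analysis Suite assigned an E-score. Binding data came from GST-tagged yeast transcription factors, applied at about 100-200 nM, on universal all-10-mer Agilent arrays made double-stranded by primer extension. Fluorescent anti-GST marked bound protein, and scans were normalised with masliner.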
row,Sequence,PBM E-score
1,AAACGTGA,-0.0765
2,AGCAGTTG,0.0675
3,CATTTCAG,-0.0429
4,GCCGCAGA,-0.0338
5,GCTCGCCA,-0.0372
6,ACTGGTAA,0.191
7,CACAGGCG,-0.13
8,AAGCCAAT,0.122
9,TAACAAAA,0.198
10,TCGTTGCA,-0.0774
11,GGCCACAC,-0.169
12,ACATTGTA,0.128
13,AATGCTTG,-0.0706
14,TTGCTAAA,-0.0962
15,GTCCGCCA,-0.249
16,GCAGATGC,-0.0639
17,AGAGTTGC,0.0538
18,ACGTGGCT,-0.152
19,GGAAACAC,0.0343
20,GCAAGGCA,0.0569
21,CTCGATTA,0.264
22,CGGGCGTC,0.0379
23,CGGAGAGC,-0.194
24,AGCTAAAT,-0.0194
25,GAAAACTA,0.178

row,Sequence,PBM E-score
1,ATATGGCC,-0.0701
2,CAAGGGTA,-0.208
3,ATTGCCTC,0.0665
4,CGATTGTA,0.196
5,AACACACG,-0.0605
6,TGCACCAA,-0.0858
7,AACGTTGA,0.0171
8,TATGTTCA,0.0974
9,AGGCTGCC,-0.293
10,CATACACC,-0.0238
11,CTCTCCAC,-0.188
12,AATCCAAC,-0.00257
13,ACGTTTCT,-0.0432
14,GCGAATGA,0.19
15,AGGTGGTA,0.0927
16,CACCTCTG,-0.0984
17,ACGACCCT,-0.196
18,CCTATTAC,0.0787
19,CGCGATCA,0.172
20,AAGCAAAG,-0.0332
21,AGATGCCC,0.087
22,CTGTGTCA,-0.0655
23,GCAGTAGA,-0.124
24,CGCTTATA,0.246
25,ACTTTCTG,0.00156

row,Sequence,PBM E-score
1,CGACGAAC,-0.0436
2,CGTCTTTC,-0.104
3,AGACTCCT,-0.0844
4,CGCCGGCC,-0.174
5,ACGCTTCG,-0.0426
6,ATCTAGGC,-0.105
7,TCACGAAA,0.194
8,CACTCCAC,0.0209
9,AGACTCCC,-0.324
10,TGCCTCAA,0.015
11,ACCGCGGC,0.139
12,CAACCTGC,0.00016
13,ACTACCGC,-0.0496
14,AAGGCTCG,-0.281
15,CCCTTCGG,-0.18
16,ACTGGACC,-0.291
17,GAATGTGC,-0.00204
18,ATCATGAA,0.133
19,CAGCGCAA,0.0372
20,AAGACATG,0.0683
21,GGCCCAAA,-0.0329
22,CGGGCCAG,-0.157
23,CTTGGGGC,0.0896
24,CAGTCCAG,-0.311
25,AGATAAAC,0.166

row,Sequence,PBM E-score
1,AGCCTCTC,-0.275
2,CCACACCG,-0.03
3,CCTGCGAC,-0.233
4,CAGCAGCG,-0.103
5,CCATGTGC,0.0668
6,AATGCAGT,0.026
7,ACTGGATG,-0.0293
8,AGCCAGGG,-0.218
9,GACCCCAA,-0.127
10,AGATGTTG,0.0226
11,ATGAGGGA,-0.0286
12,AGTTTAAA,0.138
13,GCAGAAGC,-0.101
14,GACGCTCA,-0.0931
15,AGGTCGGG,-0.166
16,AGCTAGCA,-0.168
17,ACAGTTAT,0.106
18,ACCACGCT,-0.223
19,ATAGGTTG,0.0216
20,GAGAGTAA,0.195
21,ACAATGTA,0.0632
22,TCACATAA,0.31
23,ATCGTTAC,-0.0627
24,GCCCGAGC,-0.0307
25,ATAAAATC,0.122

row,Sequence,PBM E-score
1,ACGAGGTG,-0.00102
2,AGTCACTA,0.137
3,GCCCGTTA,-0.134
4,CCCCCATA,-0.314
5,GCAATACA,0.274
6,ATATGCTG,0.0407
7,CAAGATGC,0.163
8,ACATCGCA,-0.0772
9,GCTTCGTA,0.011
10,CATCAGGC,-0.0323
11,CAAGTATC,0.0508
12,ACGGGCGC,-0.0765
13,AAGCGTAT,0.106
14,AATTAACT,0.165
15,AAGCGCTA,0.0932
16,CGCGGGCA,0.108
17,CCTCGCCG,-0.322
18,CAGCCTAC,-0.0257
19,CTCTACGC,-0.0188
20,AGCACGTA,-0.00897
21,GCCCCTAA,-0.0658
22,CAGTGTGG,-0.0748
23,CAAACTGC,0.111
24,GATACGCC,-0.122
25,ACGCGTAC,-0.101

# As a working copy, some entries already given.
row,Sequence,PBM E-score
9,GACCCCAA,-0.127
10,AGATGTTG,0.0226
11,ATGAGGGA,-0.0286
12,AGTTTAAA,0.138
13,GCAGAAGC,-0.101
14,GACGCTCA,-0.0931

# Following part:

row,Sequence,PBM E-score
1,CTTACGAC,0.103
2,CGCATTAG,-0.0118
3,AAAGTCAG,0.0619
4,AAAACAAG,0.16
5,CGTGCGAG,-0.00325
6,ATTTGGCC,0.0721
7,CAGCTCAA,0.098
8,AACGCCTT,-0.104
9,ATCATAAT,0.327
10,CGGCGTTA,-0.0879
11,CTCGGTTC,-0.237
12,AGAGTGCT,0.00224
13,AAGTATTC,0.203
14,ACAGCTCA,-0.124
15,TACGTAGA,0.102
16,ATAGACAG,0.0499
17,CATTCCGC,0.076
18,GGATATAC,0.137
19,AAATCACC,0.249
20,GTCAAAGA,-0.0368
21,GCACAGGA,-0.0338
22,AATCCGCT,0.116
23,AACTTGAA,0.161
24,CTTTCTGA,-0.0676
25,CGGCGTGA,-0.0351

row,Sequence,PBM E-score
1,AGGGTGCA,-0.148
2,CCTACCAA,0.0364
3,CCCTGCGA,-0.0749
4,CGTCGCAA,0.183
5,CGTCGGCA,-0.102
6,CCGGTGCA,-0.187
7,AGCTGTAA,-0.0224
8,CCTTTGAG,-0.295
9,CTCATATC,0.0427
10,CCGGCAGG,-0.11
11,TATGGTCA,0.063
12,ATGATGCC,-0.052
13,ATTCACGC,0.0247
14,GACTACGA,-0.0545
15,GAAGCCCA,-0.128
16,GATGTACC,0.113
17,AACCGGGC,-0.234
18,AGTTATGG,0.0606
19,CCCTTCAG,-0.137
20,CACCGATA,0.0787
21,ATCTCAGA,-0.0736
22,TATAAGGA,0.135

# Look-ups from above.
# PBM E-score, AGATGCCC reads 0.087
# PBM E-score, GGAAACAC reads 0.0343
# PBM E-score, GCCGCAGA reads -0.0338
# PBM E-score, ATCGTTAC reads -0.0627
# PBM E-score, CCCCCATA reads -0.314
# PBM E-score, CCGGTGCA reads -0.187
